PubChem BioAssay AID248 (DTP/NCI, 2004)
The list does not hold the whole screen: it gathers some chemical classes. Other doses and runs of a compound may be missing. T/C is the treated group as % of the vehicle group. Some doses have a count of surviving animals in place of a T/C: the source holds a T/C of zero for them, seemingly a mark for toxic or unscored doses. Some survivor counts are full or nearly so, which does not show that the dose was tolerated: survival well below the control is almost never listed, so the zero probably covers shortened survival too. Survivors were counted at the toxicity check, usually on the fifth day, unless a day is given; later deaths do not show. Schedule codes are those of the source, taken here to give the interval after Q, in days (D) or hours (H), and the number of doses after X. For survival time, the PubChem record calls one and a half times the control and up active, and a quarter to a half above the control has no call in these data; cut-offs in other NCI protocols can differ. Some entries were tested several times; the results are listed from low to high. Some schedule codes hold Z or #, which are not explained here. Some T/C values are followed by the survivors on the day toxicity was checked, most often the fifth; without a count or a note in brackets, all were alive then. Some complexes appear as separate parts, the way the source draws them; their charges need not add up.

Test system: L1210 leukemia ip in BDF1 mice, survival T/C
Assay: NCI In Vivo Anticancer Drug Screen. Data for tumor model L1210 Leukemia (intraperitoneal) in B6D2F1 (BDF1) mice
Conditions: T/C endpoint: mean survival time, higher T/C = longer survival
[1] = dose: 1.15 mg/kg/injection, schedule: Q01DX009 (ip), vehicle: other
[2] = dose: 1.75 mg/kg/injection, schedule: Q01DX009 (ip), vehicle: other
[3] = dose: 6.3 mg/kg/injection, schedule: Q01DX001 (ip), vehicle: saline
[4] = dose: 9.45 mg/kg/injection, schedule: Q01DX001 (ip), vehicle: saline

SMILES: Cn1cc(N(CCCl)CCCl)c(=O)[nH]c1=O
- T/C (dose: 0.19 mg/kg/injection, schedule: Q01DX009 (ip), vehicle: saline): 106 % of control
- T/C (dose: 0.19 mg/kg/injection, schedule: Q04DX003 (ip), vehicle: Klucel (hydroxypropylcellulose) (HPC)): 93 % of control
- T/C (dose: 0.2 mg/kg/injection, schedule: Q01DX009 (ip), vehicle: Klucel (hydroxypropylcellulose) (HPC)): 106 % of control
- T/C (dose: 0.39 mg/kg/injection, schedule: Q01DX009 (ip), vehicle: saline): 106 % of control
- T/C (dose: 0.39 mg/kg/injection, schedule: Q04DX003 (ip), vehicle: Klucel (hydroxypropylcellulose) (HPC)): 96 % of control
- T/C (dose: 0.4 mg/kg/injection, schedule: Q01DX009 (ip), vehicle: Klucel (hydroxypropylcellulose) (HPC)): 114 % of control
- T/C (dose: 0.78 mg/kg/injection, schedule: Q01DX009 (ip), vehicle: saline): 123 % of control
- T/C (dose: 0.78 mg/kg/injection, schedule: Q04DX003 (ip), vehicle: Klucel (hydroxypropylcellulose) (HPC)): 105 % of control
- T/C (dose: 0.8 mg/kg/injection, schedule: Q01DX009 (ip), vehicle: Klucel (hydroxypropylcellulose) (HPC)): 124 % of control
- T/C (dose: 0.9 mg/kg/injection, schedule: Q01DX Z (ip), vehicle: methylcellulose (MC)): 129 % of control
- T/C (dose: 1.03 mg/kg/injection, schedule: Q04DX003 (ip), vehicle: saline): 119 % of control
- T/C (dose: 1.15 mg/kg/injection, schedule: Q01DX009 (ip), vehicle: Klucel (hydroxypropylcellulose) (HPC)): 145 % of control
- T/C [1]: 156 % of control
- survivor count [1]: 6 of 6
- T/C (dose: 1.3 mg/kg/injection, schedule: Q01DX Z (ip), vehicle: methylcellulose (MC)): 134 % of control
- T/C (dose: 1.56 mg/kg/injection, schedule: Q01DX001 (ip), vehicle: Klucel (hydroxypropylcellulose) (HPC)): 97 % of control
- T/C (dose: 1.75 mg/kg/injection, schedule: Q01DX009 (ip), vehicle: Klucel (hydroxypropylcellulose) (HPC)): 129 % of control
- T/C [2]: 162 % of control
- survivor count [2]: 6 of 6
- T/C (dose: 2.0 mg/kg/injection, schedule: Q01DX Z (ip), vehicle: methylcellulose (MC)): 181 % of control
- T/C (dose: 2.07 mg/kg/injection, schedule: Q04DX003 (ip), vehicle: saline): 154 % of control
- T/C (dose: 2.6 mg/kg/injection, schedule: Q01DX009 (ip), vehicle: other): 156 % of control
- T/C (dose: 2.62 mg/kg/injection, schedule: Q01DX009 (ip), vehicle: Klucel (hydroxypropylcellulose) (HPC)): 137 % of control
- survivor count (dose: 2.62 mg/kg/injection, schedule: Q01DX009 (ip), vehicle: other): 6 of 6
- T/C (dose: 2.73 mg/kg/injection, schedule: Q04DX003 (ip), vehicle: Klucel (hydroxypropylcellulose) (HPC)): 152 % of control
- T/C (dose: 3.0 mg/kg/injection, schedule: Q01DX Z (ip), vehicle: methylcellulose (MC)): 126 % of control
- T/C (dose: 3.12 mg/kg/injection, schedule: Q01DX001 (ip), vehicle: Klucel (hydroxypropylcellulose) (HPC)): 100 % of control
- T/C (dose: 4.15 mg/kg/injection, schedule: Q01DX001 (ip), vehicle: saline): 121 and 131 % of control
- T/C (dose: 4.15 mg/kg/injection, schedule: Q04DX003 (ip), vehicle: Klucel (hydroxypropylcellulose) (HPC)): 182 % of control
- T/C (dose: 4.15 mg/kg/injection, schedule: Q04DX003 (ip), vehicle: saline): 175 % of control
- T/C (dose: 6.22 mg/kg/injection, schedule: Q04DX003 (ip), vehicle: Klucel (hydroxypropylcellulose) (HPC)): 117 % of control [5 of 6 alive]
- T/C (dose: 6.25 mg/kg/injection, schedule: Q01DX001 (ip), vehicle: Klucel (hydroxypropylcellulose) (HPC)): 94 % of control
- T/C [3]: 125 % of control
- survivor count [3]: 6 of 6
- survivor count (dose: 9.32 mg/kg/injection, schedule: Q04DX003 (ip), vehicle: Klucel (hydroxypropylcellulose) (HPC)): 5 of 6
- T/C (dose: 9.32 mg/kg/injection, schedule: Q04DX003 (ip), vehicle: saline): 132 % of control
- T/C [4]: 156 % of control
- survivor count [4]: 6 of 6
- T/C (dose: 12.5 mg/kg/injection, schedule: Q01DX001 (ip), vehicle: Klucel (hydroxypropylcellulose) (HPC)): 158 % of control [5 of 6 alive]
- T/C (dose: 14.13 mg/kg/injection, schedule: Q04DX003 (ip), vehicle: Klucel (hydroxypropylcellulose) (HPC)): 97 % of control [5 of 6 alive]
- survivor count (dose: 14.13 mg/kg/injection, schedule: Q04DX003 (ip), vehicle: saline): 1 of 6
- survivor count (dose: 21.19 mg/kg/injection, schedule: Q04DX003 (ip), vehicle: Klucel (hydroxypropylcellulose) (HPC)): 5 of 6
- survivor count (dose: 21.19 mg/kg/injection, schedule: Q04DX003 (ip), vehicle: saline): 3 of 6
- survivor count (dose: 25.0 mg/kg/injection, schedule: Q01DX001 (ip), vehicle: Klucel (hydroxypropylcellulose) (HPC)): 4 of 6
- survivor count (dose: 50.0 mg/kg/injection, schedule: Q01DX001 (ip), vehicle: Klucel (hydroxypropylcellulose) (HPC)): 3 of 6

SMILES: CN(C)N(C)P(N)(Cl)(c1ccccc1)c1ccccc1
- T/C (dose: 5.0 mg/kg/injection, schedule: Q01DX001 (ip), vehicle: saline): 101 % of control
- T/C (dose: 10.0 mg/kg/injection, schedule: Q01DX001 (ip), vehicle: saline): 97 % of control
- T/C (dose: 20.0 mg/kg/injection, schedule: Q01DX001 (ip), vehicle: saline): 95 % of control
- T/C (dose: 40.0 mg/kg/injection, schedule: Q01DX001 (ip), vehicle: saline): 105 % of control
- survivor count (dose: 80.0 mg/kg/injection, schedule: Q01DX001 (ip), vehicle: saline): 0 of 6
- survivor count (dose: 100.0 mg/kg/injection, schedule: Q01DX001 (ip), vehicle: saline): 1 of 4
- survivor count (dose: 200.0 mg/kg/injection, schedule: Q01DX001 (ip), vehicle: saline): 0 of 4
- survivor count (dose: 400.0 mg/kg/injection, schedule: Q01DX001 (ip), vehicle: saline): 0 of 4

SMILES: CCN(CC)CCOC(=O)C(O)(c1ccccc1)c1cccc(C)c1 (centres undefined)
- T/C (dose: 75.0 mg/kg/injection, schedule: Q01DX001 (ip), vehicle: saline): 109 % of control

SMILES: CC(C)SC(OC(=O)COc1ccc(Cl)cc1)C(Cl)(Cl)Cl (centres undefined)
- T/C (dose: 25.0 mg/kg/injection, schedule: Q01DX009 (ip), vehicle: other): 103 % of control
- T/C (dose: 50.0 mg/kg/injection, schedule: Q01DX009 (ip), vehicle: other): 97 % of control
- T/C (dose: 100.0 mg/kg/injection, schedule: Q01DX009 (ip), vehicle: other): 101 [5 of 6 alive] and 102 % of control [5 of 6 alive]
- T/C (dose: 100.0 mg/kg/injection, schedule: Q04DX003 (ip), vehicle: other): 102 % of control
- T/C (dose: 200.0 mg/kg/injection, schedule: Q01DX009 (ip), vehicle: other): 95 % of control
- T/C (dose: 200.0 mg/kg/injection, schedule: Q04DX003 (ip), vehicle: other): 102 % of control
- survivor count (dose: 400.0 mg/kg/injection, schedule: Q01DX009 (ip), vehicle: other): 3 of 6
- T/C (dose: 400.0 mg/kg/injection, schedule: Q04DX003 (ip), vehicle: other): 94 % of control

SMILES: C1C[N-]1.C1C[N-]1.C1C[N-]1.[Br][Rh]([Br])[Br]
- T/C (dose: 100.0 mg/kg/injection, schedule: Q01DX009 (ip), vehicle: Klucel (hydroxypropylcellulose) (HPC)): 101 % of control
- T/C (dose: 200.0 mg/kg/injection, schedule: Q01DX009 (ip), vehicle: Klucel (hydroxypropylcellulose) (HPC)): 95 % of control
- T/C (dose: 400.0 mg/kg/injection, schedule: Q01DX009 (ip), vehicle: Klucel (hydroxypropylcellulose) (HPC)): 101 % of control

SMILES: CCOC(=O)NP(=O)(Nc1ccccn1)Nc1ccccn1
- T/C (dose: 50.0 mg/kg/injection, schedule: Q01DX001 (ip), vehicle: carboxymethylcellulose (CMC)): 104 % of control
- T/C (dose: 100.0 mg/kg/injection, schedule: Q01DX001 (ip), vehicle: carboxymethylcellulose (CMC)): 110 % of control
- T/C (dose: 200.0 mg/kg/injection, schedule: Q01DX001 (ip), vehicle: carboxymethylcellulose (CMC)): 98 % of control
- T/C (dose: 400.0 mg/kg/injection, schedule: Q01DX001 (ip), vehicle: carboxymethylcellulose (CMC)): 101 % of control
